# In all, about 340,000 compounds went through this assay and about 170 (0.05%) were called active. Inconclusive means that the source gave no clear call. Such entries were picked first, then a sample of the others. Calls follow the shape of the dose curve; as a rule, active = well fitted inhibition curve with a large enough effect in the signal ratio, with a control signal flat (not every such curve was filed as active); inconclusive = small, poorly fitted or top-dose-only effect, or effect the other way, or a change in a side signal; inactive = flat fitted curve, though single readings scatter; the % refers to the signal ratio. Potencies beside an inconclusive call are fits to weak or partial responses and may not hold up.
# Assay: qHTS Assay to Find Inhibitors of Chronic Active B-Cell Receptor Signaling;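 as to activity change, negative = inhibition: plate controls were basal doxycycline-induced cells for no effect and cells given 10 µM MG132 for full effect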
# Conditions: ABC-DLBCL IkBa-CBG/CBR reporter, luminescence ratio (green luciferase fused to IkBa over red control in TMD8 lymphoma cells), 4 h; activity change, negative = inhibition: at 46.1 µM (top of the series)
# How it was run: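 Cell line TMD8 (human ABC DLBCL), stably expressing tet-inducible CBG68-IkBa fusion and CBR; IMDM/0.5% FBS; cpd up to 46 uM; dox induction, 4 h, 37C/5% CO2; dual luminescence; green/red ratio; MG132 control.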
# Potency is read from the fitted curve at half-maximal effect.
Compound,Potency,"activity change, negative = inhibition"
COc1ccc(/C=N/Nc2nccnc2Cl)cc1,"inconclusive: 18.4 µM [falling, partial curve, poor fit]",–
CCc1cc(=O)n2c([nH]c3ccccc32)c1C#N,"inconclusive: 5.8 µM [falling, partial curve, poor fit]",–
COc1cc(N=c2oc3c(C)ncc(CO)c3cc2C(N)=O)cc(OC)c1OC,–,inconclusive: 9.19%
COC(=O)c1ccc(Cl)c(NC(=O)CSc2ncn[nH]2)c1,–,inconclusive: 7.18%
COc1cccc(NC(=O)CSc2cc(C)[nH]c(=O)n2)c1,–,inactive: 12.7%
CCOC(=O)C1CCN(C(=O)Cn2c(=O)oc3cc(S(=O)(=O)N4CCCC4)ccc32)CC1,–,inactive: 4.01%
Clc1ccccc1-c1nnc2sc(-c3ccccn3)nn12,–,inconclusive: 25.6%
O=C(NCc1cccs1)C(=O)NCC1OCCCN1S(=O)(=O)c1cccs1 (stereo not given),–,inconclusive: 0.752%
CCc1ccc(S(=O)(=O)ON2C(=O)c3ccccc3C2=O)cc1,"inconclusive: 11.2 µM [falling, partial curve, poor fit]",–
COc1ccc(C)cc1-n1nnnc1SCC(=O)Nc1cc(C)on1,–,inactive: 6.08%
C=C(C)C(=O)Nc1ccc(OC(F)(F)C(F)F)c(NC(=O)C(=C)C)c1,–,inconclusive: 14.1%
C/C(=N\NC(=O)CO/N=C(\C)c1cccs1)c1ccc(N)cc1,"inconclusive: 35.5 µM [falling, single point]",–
C=CCNC(=O)c1onc(CSc2cc(C)cc(C)c2)c1C(=O)NCC=C,–,inconclusive: 2.08%
Cc1ccc(N2C(=O)c3cccc([N+](=O)[O-])c3C2=O)cc1C,–,inactive: 0.08%
CN1CC=C2C(C#N)=C(N)C(C#N)(C#N)[C@H](c3cccs3)[C@H]2C1,–,inactive: 0.272%
Cc1csc(SCC(=O)Nc2ccc3c(c2)OCCO3)n1,"inconclusive: 35.5 µM [falling, single point]",–
O=C(COC(=O)C1CC2C=CC1C2)NCc1ccc(F)cc1 (stereo not given),–,inactive: -3.7%
NNc1nc2c(Cl)ccc(Cl)c2s1,–,inconclusive: -27.1%
Cc1cc(C(=O)NN)c2cc(Br)ccc2n1,–,inconclusive: -16.2%
CC1CCCN(C2=NC(=O)/C(=C/c3cn(-c4ccccc4)nc3-c3cccc(S(=O)(=O)N(C)C)c3)S2)C1 (stereo not given),–,inactive: 0.422%
CC(=O)c1cccc(CN(C)CC2CCCN(CCc3ccccc3C)C2)c1 (stereo not given),–,inactive: 3.24%
Cc1ccc(S(=O)(=O)N2CCN(Cc3cc(=O)n4ccccc4n3)CC2)c(C)c1,–,inconclusive: -0.449%

# Looked up one by one from the list above (4):
Compound,Potency,"activity change, negative = inhibition"
Cc1cc(C(=O)NN)c2cc(Br)ccc2n1,–,inconclusive: -16.2%
COc1ccc(/C=N/Nc2nccnc2Cl)cc1,"inconclusive: 18.4 µM [falling, partial curve, poor fit]",–
Cc1ccc(N2C(=O)c3cccc([N+](=O)[O-])c3C2=O)cc1C,–,inactive: 0.08%
COc1cccc(NC(=O)CSc2cc(C)[nH]c(=O)n2)c1,–,inactive: 12.7%

# Continued.

Compound,Potency,"activity change, negative = inhibition"
O=C(CSc1nnc(-c2ccccc2Br)o1)Nc1cccc2ccccc12,–,inconclusive: -27.1%
CCC/C(=N/NC(=O)c1ccc2c(c1)OCO2)c1cccs1,"inconclusive: 20.6 µM [falling, single point]",–
C/C(N)=C(/C#N)C(=O)COC(=O)CC12CC3CC(CC(C3)C1)C2,–,inactive: 14.4%
CC(C)(C)OC(=O)N1CCN(c2ccc(CNC(=O)c3ccc(Cl)cc3)cc2)CC1,–,inconclusive: 1.49%
CC(C)NC(=O)C(=O)NNC(=O)CCc1ccccc1,–,inconclusive: 1.11%
CC1=CCC[C@@H]2[C@@](C)(CC/C(C)=C/C(=O)O)[C@H](C)CC[C@@]12C,–,inconclusive: 6.01%
CCN(C[C@H]1N[C@@](C)(C(=O)OC)[C@H]2C(=O)N(Cc3ccccc3)C(=O)[C@@H]12)S(=O)(=O)c1ccc(C(C)(C)C)cc1,–,inactive: -0.836%
C=CCNc1nc(SC)nc2ccsc12,–,inconclusive: -0.666%
Cc1ccc(CSCCNC(=O)CSCc2ccc([N+](=O)[O-])cc2)cc1,–,inconclusive: 8.58%
COc1cccc(C(=O)COc2cccc(NC(=O)c3cccc([N+](=O)[O-])c3)c2)c1,"inconclusive: 15.8 µM [falling, partial curve]",–
CN(CC(=O)Nc1cccc(C(F)(F)F)c1)Cc1ccccc1,–,inactive: 13.8%
Cc1cc(=O)oc(C)c1C(=O)Nc1ccc2nsnc2c1,–,inconclusive: -1.62%
Cc1cc(Br)ccc1OCCOCCN1CCCC1,–,inactive: 0.338%
CC(C)CCc1c(O)nc(SCC(C)C)[nH]c1=O,–,inconclusive: -2.82%
CCOC(=O)c1cc(-c2cccc([N+](=O)[O-])c2)n[nH]1,–,inactive: -0.517%
CCCNC(=S)N1CCC(NC(=O)C2CCCCC2)CC1,–,inactive: -1.44%
Cc1cc(C)n2nc(C(=O)OCC(=O)Nc3ccc4c(c3)OC(F)(F)O4)nc2n1,–,inconclusive: 2.31%
Cc1nc2ccccc2n1CC(O)Cn1c2ccccc2c2ccccc21 (stereo not given),"inconclusive: 2 µM [falling, full curve, poor fit]",–
COc1ccccc1/C=C(/C(=O)OCC(=O)N(C)Cc1ccccc1)c1ccccc1,–,inactive: -10.3%
N/C(=N\c1nc2ccccc2o1)NC(=O)c1ccccc1NC(=O)c1ccccc1,–,inconclusive: -17.5%
CCCCOP(=O)(c1ccc(N(C)C)cc1)C(O)c1ccccc1F (stereo not given),–,inconclusive: -22.7%
COc1ccc(C(=O)Nc2cc3c(cc2Cl)OCCCO3)cc1,–,inconclusive: 12.4%

Compound,Potency,"activity change, negative = inhibition"
CCn1c(C(=O)NCc2ccccn2)cc2sccc21,–,inconclusive: -3.15%
CCOc1cc(/C=C2/SC(=S)NC2=O)ccc1OC(=O)c1ccco1,–,inconclusive: -9.69%
CCOC(=O)c1c(NC(=S)NC)sc2c1CC(C)(C)SC2,–,inconclusive: 9.29%
CC(=O)Nc1cc(NC(C)=O)cc(C(=O)OCC(=O)N2CC(C)OC(C)C2)c1 (stereo not given),"inconclusive: 20.6 µM [falling, single point]",–
CC(C)(C)OC(=O)N1CCN(C(=O)c2[nH]cnc2C(=O)Nc2ccc(Cl)cc2)CC1,–,inactive: 3.47%
COc1c(C)cc(Br)cc1C(=O)Nc1cccc(NC(=O)c2ccco2)c1,–,inconclusive: 10.4%
COc1ccc2nc(NC(=O)C3CCCO3)sc2c1 (stereo not given),"inconclusive: 35.5 µM [rising, single point]",–
O=C(CN1C(=O)COc2ccc(S(=O)(=O)N3CCCC3)cc21)NC1CC1,–,inactive: 3.14%
Cc1ncoc1C(=O)Nc1cccc(Cl)c1C,"inconclusive: 18.4 µM [falling, single point]",–
COc1ccccc1Cc1nc(-c2ccc(C)cc2)no1,–,inconclusive: 2.56%
CCn1c(=O)ccc2cc([N+](=O)[O-])ccc21,–,inconclusive: -3.67%
Cc1ccc(OC(=O)CCc2c(C)nc3ncnn3c2C)cc1,–,inconclusive: -3.2%
CCC1(c2ccccc2)NC(=S)N(c2ccc(C)c(C)c2)N1 (stereo not given),–,inconclusive: 20%
CCn1c(=S)sc2c(=O)n(CC(=O)Nc3cccc(Cl)c3)c(C)nc21,–,inconclusive: 1.55%
CCN1CCN(C(c2ccc(C)cc2)c2sc3nc(-c4ccco4)nn3c2O)CC1 (stereo not given),–,inactive: 1.18%
O=C(Cn1c(CO)nc2ccccc21)NCCc1ccc(F)cc1,–,inconclusive: 1.71%
Cc1sc(NC(=O)CSC2=NCCS2)nc1-c1ccccc1,–,inconclusive: 2.76%
C#CCNC(=O)C1=C[C@H](c2coc3ccccc3c2=O)C[C@H](OCCCCO)O1,–,inconclusive: 13.5%
Cc1ccnc(NCc2ccc(Br)cc2)c1,–,inconclusive: 5.83%
CN(C)CCn1c2c(c(SCC(=O)Nc3cccc4ccccc34)nc1=O)CCC2,–,inconclusive: -13.7%
CSC1CCCCC1(O)CSc1nc2c(cc1C#N)CCCC2 (stereo not given),"inconclusive: 16.4 µM [falling, partial curve]",–
Cc1ccccc1/[N+]([O-])=C/c1ccncc1,"inconclusive: 29.1 µM [rising, single point]",–

Compound,Potency,"activity change, negative = inhibition"
COC(=O)c1cccc(NC(=O)CCc2cc(OC)c(OC)c(OC)c2)c1,–,inactive: 1.06%
CCCc1cc(=O)[nH]c(SCC(=O)Nc2sc3c(c2C(N)=O)CCCC3)n1,–,inactive: -6.21%
Cc1ccc(Cl)cc1N1CCN(S(=O)(=O)c2c(C)[nH]c(=O)[nH]c2=O)CC1,–,inconclusive: 0.464%
CCn1c(O)c(N=NC(=O)C(O)c2ccccc2)c2ccccc21 (stereo not given),–,inactive: 5.55%
Cc1c(O)ccc(-c2n[nH]c(C(=O)O)c2-c2nc3ccccc3s2)c1O,–,inactive: 27.4%
CCN(CC)c1ccc(C(=O)Nc2cccc(F)c2)cc1,–,inconclusive: -19.5%
COc1nc(NCCO)nc(Nc2ccc([N+](=O)[O-])cc2)n1,–,inconclusive: 14.9%
Cn1c(C(=O)NCCCN2CCN(c3cccc(Cl)c3)CC2)cc2c(=O)n(C)c3ccccc3c21,–,inconclusive: -2.42%
CC1(C)CC(=O)c2sc(NC(=O)c3cccs3)nc2C1,"inconclusive: 4.61 µM [falling, partial curve]",–
Cc1ccc(C)c(NC(=O)CN(C)C(=O)c2oc3c(Cl)cccc3c2C)c1,–,inconclusive: 2.33%
CN(C(=O)COC(=O)CCCN1C(=O)c2cccc3cccc(c23)C1=O)C1CCS(=O)(=O)C1 (stereo not given),"inconclusive: 0.82 µM [rising, full curve, poor fit]",–
Cc1ccc(NC(=O)Cc2ccc3c(c2)CCCC3)cc1C,–,inconclusive: -9.41%
C#CCSc1nccc(-c2nn(-c3ccc(C)cc3)ccc2=O)n1,–,inactive: -16.3%
CCOc1ccc(C(=O)Nc2nccs2)cc1[N+](=O)[O-],"inconclusive: 3.26 µM [rising, partial curve]",–
CN(C)CCNC(=O)c1cc(Br)ccc1Cl,–,inactive: -2.67%
Cc1ccccc1OCCOc1cccc(/C=N/NC(=O)Cc2nnc(N)s2)c1,–,inconclusive: -9.04%
NC(=S)NN=C1C2CC3CC(C2)CC1C3,"inconclusive: 28.2 µM [falling, single point]",–
CCCCn1c(CN2CCN(C(=O)OCC)CC2)nc2c1c(=O)n(C)c(=O)n2C,–,inconclusive: 3.62%
COc1ccc(-c2cc(C(F)(F)F)nc(S(C)(=O)=O)n2)cc1OC,–,inconclusive: 26.8%

# — PubChem BioAssay AID493014 (National Center for Advancing Translational Sciences (NCATS), 2011)
